Taken from: PubChem BioAssay AID1224830 (NIAID, 2016)

Assay: 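Host factors that control LPS-induced TNF expression in human macrophages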 (primary screen)
Cell system: human THP-1 monocytic leukaemia cells, TNF dual-luciferase reporter clone, PMA-differentiated to macrophage-like cells
Knock-down reagent: siRNA pool against human genes, 50 nM
Duration: LPS for 4 h, given about 3 days after siRNA transfection
Conditions: bacterial LPS (TLR4 ligand), 10 ng/ml
Detection: 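TNF firefly reporter luminescence divided by renilla, normalised to the plate median, then turned into a robust z-score for each replicate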
Direction: TNF reporter robust z-score: higher = stronger TNF reporter response to LPS
Call rule: 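a well is active when its z-score exceeds 2.8 or falls below -1.5; control wells carry no call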
The whole screen tested about 18,000 reagents; this is an unselected part. About 2,900 of them (16%) count as active. 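Calls are made per well; low scores hint the gene aids the LPS response, high scores that it dampens it.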 Entries without a mark were called inactive. Repeated entries: four replicate wells of each siRNA pool.

MSANTD1 | TNF reporter robust z-score = 0.61
MSANTD1 | TNF reporter robust z-score = 0.49
MSANTD1 | TNF reporter robust z-score = 0.06
MSANTD1 | TNF reporter robust z-score = -0.94
TLX2 | TNF reporter robust z-score = -0.45
TLX2 | TNF reporter robust z-score = 0.3
TLX2 | TNF reporter robust z-score = 0.23
TOX3 | TNF reporter robust z-score = 2.33
TOX3 | TNF reporter robust z-score = 3.73 (active)
TOX3 | TNF reporter robust z-score = 1.63
TOX3 | TNF reporter robust z-score = 1.78
FBXO48 | TNF reporter robust z-score = -0.55
FBXO48 | TNF reporter robust z-score = -0.26
FBXO48 | TNF reporter robust z-score = -1.7 (active)
FBXO48 | TNF reporter robust z-score = -0.57
CEP170 | TNF reporter robust z-score = -1.26
CEP170 | TNF reporter robust z-score = -0.47
CEP170 | TNF reporter robust z-score = -1.43
CEP170 | TNF reporter robust z-score = -0.94
CNNM2 | TNF reporter robust z-score = -0.73
CNNM2 | TNF reporter robust z-score = -0.24
CNNM2 | TNF reporter robust z-score = -0.7
CNNM2 | TNF reporter robust z-score = 0
ESRRG | TNF reporter robust z-score = -0.62
ESRRG | TNF reporter robust z-score = 2.39
ESRRG | TNF reporter robust z-score = -0.22
ESRRG | TNF reporter robust z-score = 2.24
TRIM51G | TNF reporter robust z-score = -1.42
TRIM51G | TNF reporter robust z-score = -0.45
TRIM51G | TNF reporter robust z-score = -1.8 (active)
TRIM51G | TNF reporter robust z-score = -1.28
TRIM51G | TNF reporter robust z-score = 0.38
TRIM51G | TNF reporter robust z-score = -2.23 (active)
TRIM51G | TNF reporter robust z-score = -0.38
TRIM51G | TNF reporter robust z-score = 3.59 (active)
SCD | TNF reporter robust z-score = -0.75
SCD | TNF reporter robust z-score = 0.7
SCD | TNF reporter robust z-score = -1.34
SCD | TNF reporter robust z-score = 0.76
HOXC8 | TNF reporter robust z-score = 1
HOXC8 | TNF reporter robust z-score = 0.3
HOXC8 | TNF reporter robust z-score = 0.88
HOXC8 | TNF reporter robust z-score = 0.16
SACK1A | TNF reporter robust z-score = -0.74
SACK1A | TNF reporter robust z-score = -0.49
SACK1A | TNF reporter robust z-score = -0.15
SACK1A | TNF reporter robust z-score = -0.26

6 entries already listed, sorted by “TNF reporter robust z-score”, high to low.
CNNM2 | TNF reporter robust z-score = -0.24
CEP170 | TNF reporter robust z-score = -0.47
CNNM2 | TNF reporter robust z-score = -0.73
CEP170 | TNF reporter robust z-score = -0.94
CEP170 | TNF reporter robust z-score = -1.26
CEP170 | TNF reporter robust z-score = -1.43
